Drawing on patent publication US11155596B2, “Polypeptide” (AFFIBODY AB, priority 2016, dated 2021), this text covers Kd for two molecules.

Numbering of substitutions follows the chain as printed.

Broadly, the Kd is the free concentration of one partner at which half of the binding sites on the other are occupied at equilibrium, for simple one-to-one binding. The low end stands for a tighter complex, the high end for a looser complex.

This test concerns the target T1, human B7-H4 (R&D Systems, cat. no. 6576-B7-50) (human), Q7Z7D3.
T1 chain: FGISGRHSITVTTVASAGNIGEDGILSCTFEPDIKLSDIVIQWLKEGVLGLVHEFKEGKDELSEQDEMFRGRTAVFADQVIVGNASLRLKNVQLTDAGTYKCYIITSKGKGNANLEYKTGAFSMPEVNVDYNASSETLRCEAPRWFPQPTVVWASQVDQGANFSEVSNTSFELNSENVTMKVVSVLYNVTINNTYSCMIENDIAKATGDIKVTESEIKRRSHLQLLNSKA
Put plainly: SPR. As to conditions: remark: other sources report otherwise.

B1: His6-tagged Z13156 (designed binder)
chain: MGSSHHHHHHLQVDAKYAKERNQAAVEILQLPNLTAAQYWAFIWKLDDDPSQSSELLSEAKKLNDSQAPKVD
modifications: here or on the partner: biotinylated in ELISA
As to B1, the Kd is more than 5 µM.

B2: His6-tagged Z13165 (designed binder)
chain: B1 chain with Q23Y, V26W, Q30R, A37S
modifications: here or on the partner: biotinylated in ELISA
Regarding B2, the Kd is more than 5 µM.
